Measurements published in patent US20150072416A1, “METABOLITE FOR IMPROVING PRODUCTION, MAINTENANCE AND PROLIFERATION OF PLURIPOTENT STEM CELLS, COMPOSITION COMPRISING THE SAME, AND METHOD OF CULTURING PLURIPOTENT STEM CELL USING THE SAME” (KOREA RESEARCH INSTITUTE OF BIOSCIENCE AND BIOTENOLOGY, priority 2012, published 2015).
At least one compound was matched to its structure with a doubt left.

Test system: embryonic stem cells
Experiment: Embryonic stem cells treated with NAD+ synthesis inhibitor FK866 and NAD precursors (NAD level, AP activity, apoptosis)
Assay type: cell-based, human
Settings: co-treatment with FK866; also in mTeSR1-CDM
Method: Embryonic stem cells were treated with nicotinamide and related compounds, and after 6 days, protein was isolated from the cells. NAD cycling enzyme was added to and reacted with 20 μg of the protein per each group at room temperature for 5 minutes, and then a NADH developer was added and reacted therewith for 2-3 hours. The absorbance at 450 nm was measured using a microplate reader, and the amount of the […] was quantified.
AP staining was performed using a commercial AP kit (Sigma) according to the manufacturer's instruction. Images of AP-positive cells were recorded with HP Scanjet G4010. Also, bight field images were obtained with an Olympus microscope (IX51, Olympus, Japan).
In order to examine the effect of nicotinamide on a reduction in the apoptosis of human pluripotent stem cells, dual apoptosis assay (Biotium, Hayward, Calif.) was performed. Embryonic stem cells or cells reprogrammed were stained with NucView™488 Caspase-3 Substrate (green)/Annextin V (red) at room temperature for 30 minutes, followed by washing with PBS. At least 4 sections of each sample were imaged with an Olympus fluorescence microscope (IX51, Olympus), and the number of cells stained with green (Caspase-3) was counted to quantify the degree of apoptosis.

NC(=O)c1ccc[n+]([C@@H]2O[C@H](COP(=O)([O-])OP(=O)(O)OC[C@H]3O[C@@H](n4cnc5c(N)ncnc54)[C@H](O)[C@@H]3O)[C@@H](O)[C@H]2O)c1 [NAD, nicotinamide adenine dinucleotide]
recovery from damage caused by FK866: recovered
